Assay results taken from the supplement of paper PMC4635364.
Some of the results follow. This data set is noisy: repeats of one test often differ as much as different tests do.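 Human fetal ventral-midbrain neural progenitor line ReNCell VM, differentiated without mitogens. Images stained for doublecortin (early neurons) or tyrosine hydroxylase (dopaminergic neurons) were scored by blinded raters against untreated wells (0 = no change). Repeats and both raters were averaged, and compounds averaging 2 or higher were picked as hits for retesting.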

System: ReNCell VM
Assay: dopaminergic neuron differentiation score (TH+ cell fraction vs untreated, manual image score) (score (0 to 3)); higher = more TH+ dopaminergic neuron differentiation
Conditions: library: Tocriscreen; 2 uM; 4 weeks; BDNF 10 ng/ml + GDNF 10 ng/ml

Structure (SMILES)	dopaminergic neuron differentiation score
CCCC[P+](CCCC)(CCCC)Cc1ccc(NC(=O)C(Cc2ccc3ccccc3c2)NC(=NC2CCCCC2)NC2CCCCC2)cc1 (stereo not given)	inactive: 0
COc1cc(N)c(Cl)cc1C(=O)OCCCN1CCCCC1	inactive: 0
N=C(N)S/C=C\C(=O)O [ZAPA sulphate]	inactive: 0
CCCCN1CCC(CCC(=O)c2cc(Cl)c(N)cc2OC)CC1	inactive: 0
N[C@H](C(=O)O)c1ccc(C(=O)O)c(O)c1 [(S)-4-Carboxy-3-hydroxyphenylglycine]	inactive: 0
